Consider 8 substances from PMC6156291.

Protein sequences, listed by entry. Tags and fused reporters are not part of them. Lines headed by an entry give the natural chain unless they say otherwise; changes in a name come on top. Chains listed by the source or under a name are the forms on record and can include a tag or linker. Residues count along the entry.
GFP-lamin A (P02545, residues 1-646): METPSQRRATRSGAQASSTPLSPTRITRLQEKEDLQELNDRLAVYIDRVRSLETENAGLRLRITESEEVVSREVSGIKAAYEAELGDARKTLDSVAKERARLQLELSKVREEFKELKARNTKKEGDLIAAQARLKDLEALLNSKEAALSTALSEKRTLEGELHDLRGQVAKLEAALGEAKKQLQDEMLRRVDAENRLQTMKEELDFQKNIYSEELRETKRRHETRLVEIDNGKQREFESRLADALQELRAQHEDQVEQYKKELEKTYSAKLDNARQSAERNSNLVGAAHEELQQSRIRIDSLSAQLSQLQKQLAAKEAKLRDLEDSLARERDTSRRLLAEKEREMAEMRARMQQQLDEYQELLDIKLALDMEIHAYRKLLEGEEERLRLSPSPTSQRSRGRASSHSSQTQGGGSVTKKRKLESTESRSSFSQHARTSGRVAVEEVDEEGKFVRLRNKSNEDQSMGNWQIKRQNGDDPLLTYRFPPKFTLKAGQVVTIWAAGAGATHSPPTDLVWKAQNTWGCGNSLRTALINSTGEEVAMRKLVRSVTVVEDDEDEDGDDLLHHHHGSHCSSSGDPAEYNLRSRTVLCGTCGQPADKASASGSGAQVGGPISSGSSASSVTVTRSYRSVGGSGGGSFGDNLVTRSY
lamin A/C in APS fibroblasts (P4R LMNA) (human (endogenous in dermal fibroblasts)) (P02545, form named): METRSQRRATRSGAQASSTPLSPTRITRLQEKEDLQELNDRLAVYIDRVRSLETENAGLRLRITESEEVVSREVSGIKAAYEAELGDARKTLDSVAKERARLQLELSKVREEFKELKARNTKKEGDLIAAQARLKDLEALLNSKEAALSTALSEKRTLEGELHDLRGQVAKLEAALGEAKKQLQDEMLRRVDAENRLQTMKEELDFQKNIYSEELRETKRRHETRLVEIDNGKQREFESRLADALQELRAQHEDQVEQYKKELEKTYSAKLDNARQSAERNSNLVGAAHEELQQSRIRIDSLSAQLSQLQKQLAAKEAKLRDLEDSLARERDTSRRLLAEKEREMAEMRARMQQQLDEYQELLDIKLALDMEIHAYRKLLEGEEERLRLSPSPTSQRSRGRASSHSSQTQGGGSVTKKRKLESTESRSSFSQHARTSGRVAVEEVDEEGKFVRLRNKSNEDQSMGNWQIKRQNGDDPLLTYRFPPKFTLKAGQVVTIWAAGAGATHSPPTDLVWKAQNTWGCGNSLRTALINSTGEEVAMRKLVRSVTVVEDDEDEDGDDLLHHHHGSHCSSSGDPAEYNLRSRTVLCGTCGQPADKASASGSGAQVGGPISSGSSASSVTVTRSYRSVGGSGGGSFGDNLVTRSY
lamin A/C in EDMD2 fibroblasts (Y259D LMNA) (human (endogenous in dermal fibroblasts)) (P02545, form named): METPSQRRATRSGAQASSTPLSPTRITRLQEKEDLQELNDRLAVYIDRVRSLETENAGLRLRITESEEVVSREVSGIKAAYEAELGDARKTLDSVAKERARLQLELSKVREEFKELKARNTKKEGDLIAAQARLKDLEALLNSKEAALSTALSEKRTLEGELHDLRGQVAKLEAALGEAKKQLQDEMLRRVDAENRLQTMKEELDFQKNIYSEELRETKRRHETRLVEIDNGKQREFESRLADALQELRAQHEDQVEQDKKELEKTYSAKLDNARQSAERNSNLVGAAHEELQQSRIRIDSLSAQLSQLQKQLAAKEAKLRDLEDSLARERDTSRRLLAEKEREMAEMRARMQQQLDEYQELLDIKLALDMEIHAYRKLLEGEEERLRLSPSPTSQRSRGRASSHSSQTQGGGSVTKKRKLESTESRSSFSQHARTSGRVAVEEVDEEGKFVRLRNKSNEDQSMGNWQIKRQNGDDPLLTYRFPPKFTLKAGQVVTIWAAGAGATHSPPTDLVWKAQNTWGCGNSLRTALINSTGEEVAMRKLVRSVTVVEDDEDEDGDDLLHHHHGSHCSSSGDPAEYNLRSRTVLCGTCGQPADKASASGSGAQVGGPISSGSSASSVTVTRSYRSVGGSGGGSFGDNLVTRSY
lamin A/C in MADA fibroblasts (R527H LMNA) (human (endogenous in dermal fibroblasts)) (P02545, form named): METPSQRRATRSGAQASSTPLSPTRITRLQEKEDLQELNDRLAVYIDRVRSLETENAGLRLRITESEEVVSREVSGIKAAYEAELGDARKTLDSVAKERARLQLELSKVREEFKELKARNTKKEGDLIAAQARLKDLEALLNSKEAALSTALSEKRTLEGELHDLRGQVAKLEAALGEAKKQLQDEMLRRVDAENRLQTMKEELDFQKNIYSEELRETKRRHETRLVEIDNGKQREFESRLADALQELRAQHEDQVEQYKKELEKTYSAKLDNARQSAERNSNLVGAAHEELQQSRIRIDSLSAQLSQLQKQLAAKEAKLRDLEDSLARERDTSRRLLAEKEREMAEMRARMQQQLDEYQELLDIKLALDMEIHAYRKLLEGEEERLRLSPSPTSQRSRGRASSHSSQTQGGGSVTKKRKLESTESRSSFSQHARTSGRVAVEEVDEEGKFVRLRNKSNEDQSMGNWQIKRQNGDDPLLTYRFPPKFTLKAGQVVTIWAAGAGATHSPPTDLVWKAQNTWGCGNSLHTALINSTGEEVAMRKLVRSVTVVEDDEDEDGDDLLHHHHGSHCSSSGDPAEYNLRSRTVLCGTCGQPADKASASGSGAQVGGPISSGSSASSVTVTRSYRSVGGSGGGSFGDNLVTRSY
UniProt Q92769: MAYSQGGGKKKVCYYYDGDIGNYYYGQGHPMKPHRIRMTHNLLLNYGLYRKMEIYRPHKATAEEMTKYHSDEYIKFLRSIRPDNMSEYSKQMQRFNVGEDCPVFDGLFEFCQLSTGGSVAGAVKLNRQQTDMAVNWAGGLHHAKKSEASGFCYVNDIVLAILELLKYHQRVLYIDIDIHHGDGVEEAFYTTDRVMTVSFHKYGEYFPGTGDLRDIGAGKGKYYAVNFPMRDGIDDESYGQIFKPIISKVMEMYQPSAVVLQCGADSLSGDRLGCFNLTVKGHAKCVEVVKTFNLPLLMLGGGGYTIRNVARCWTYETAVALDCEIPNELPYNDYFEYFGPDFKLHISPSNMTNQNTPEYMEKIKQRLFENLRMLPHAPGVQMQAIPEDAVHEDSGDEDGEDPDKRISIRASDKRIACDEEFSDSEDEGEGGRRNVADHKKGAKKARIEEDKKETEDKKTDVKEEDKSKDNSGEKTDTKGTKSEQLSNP
UniProt Q06413: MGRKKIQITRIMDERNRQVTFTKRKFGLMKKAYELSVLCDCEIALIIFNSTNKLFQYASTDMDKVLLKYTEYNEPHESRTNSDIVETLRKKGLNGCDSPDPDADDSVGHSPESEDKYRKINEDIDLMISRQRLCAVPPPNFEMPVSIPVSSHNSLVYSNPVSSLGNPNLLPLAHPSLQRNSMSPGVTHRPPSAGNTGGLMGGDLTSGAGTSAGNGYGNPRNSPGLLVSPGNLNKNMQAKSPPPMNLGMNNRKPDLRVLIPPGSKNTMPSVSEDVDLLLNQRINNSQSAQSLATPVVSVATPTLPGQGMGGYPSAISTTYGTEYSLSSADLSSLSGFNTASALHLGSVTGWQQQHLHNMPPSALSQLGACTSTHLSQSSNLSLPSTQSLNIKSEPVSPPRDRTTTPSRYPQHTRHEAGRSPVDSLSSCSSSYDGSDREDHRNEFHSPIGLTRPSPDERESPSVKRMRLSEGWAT

No constants are given. Whether binding was seen depends on the method and setting. In cells and extracts the contact can be indirect. Some binding calls cover weakened binding; strength is not graded here.

The target of assay [1] is lamin A/C in APS fibroblasts (P4R LMNA) (human (endogenous in dermal fibroblasts)) (UniProt P02545). Description: proximity ligation; in situ PLA (Duolink), methanol-fixed fibroblasts of APS (P4R), MADA (R527H) or EDMD2 (Y259D) patients, compared with controls.
For assay [2], the target named is lamin A/C in EDMD2 fibroblasts (Y259D LMNA) (human (endogenous in dermal fibroblasts)) (UniProt P02545). Described as above.
Assay [3] addresses lamin A/C in MADA fibroblasts (R527H LMNA) (human (endogenous in dermal fibroblasts)) (UniProt P02545). Described as above.
Assay [4] deals with lamin A/C in HGPS fibroblasts (G608G LMNA) (human (endogenous in dermal fibroblasts)) (UniProt P02545). Put plainly: proximity ligation; in situ PLA (Duolink), methanol-fixed HGPS patient fibroblasts (G608G LMNA), 300 nuclei counted; untreated, also 4 hr H2O2 and 48 hr recovery.
Assay [5] addresses lamin A/C (control human dermal fibroblasts) (human (endogenous in dermal fibroblasts)) (UniProt P02545). Put plainly: proximity ligation; in situ PLA (Duolink) of lamin A/C and HDAC2 in control fibroblasts transfected with WT FLAG-lamin A or FLAG-progerin (48 hr); nuclei of the same FLAG fluorescence intensity compared.
The target is the same in assay [6]. Put plainly: co-IP; endogenous proteins; nuclear extracts (about 350 µg) of normal or HGPS dermal fibroblasts in 50 mM Tris-HCl pH 8, 150 mM NaCl, 0.1% SDS, 1% NP-40; 4 µg anti-lamin A/C overnight at 4°C, protein A/G; western blot of HDAC2. A general note: In western blotting, separated proteins are transferred to a membrane and probed.
Assay [7] concerns the target lamin A/C in HGPS fibroblasts (G608G LMNA) (human (endogenous in dermal fibroblasts)) (UniProt P02545). Described as above.
Assay [8] has as its target lamin A/C (control human dermal fibroblasts) (human (endogenous in dermal fibroblasts)) (UniProt P02545). Put plainly: proximity ligation; in situ PLA (Duolink), methanol-fixed control human dermal fibroblasts, primary antibodies overnight at 4°C, 300 nuclei counted; untreated, also 4 hr H2O2, 48 hr recovery, MS275 5 µM 18 hr, HDAC2 or lamin A/C siRNA.
A further assay has as its target GFP-lamin A (UniProt P02545). Put plainly: co-IP; transfected HEK293 cells; lysate in 50 mM Tris-HCl pH 8, 300 mM NaCl, 0.1% SDS, 1% NP-40; 700 µg lysate, 3 µg anti-GFP overnight, protein A/G, 3 washes in IP buffer; western blot; nonspecific IgG as negative control.
In another assay the target is wild-type FLAG-HDAC2 (UniProt Q92769). Description: co-IP; transfected HEK293 cells; lysate in 50 mM Tris-HCl pH 8, 300 mM NaCl, 0.1% SDS, 1% NP-40; 700 µg lysate, 1 µg anti-FLAG overnight, protein A/G, 3 washes in IP buffer; western blot; nonspecific IgG as negative control.
Another assay deals with FLAG-lamin A (UniProt P02545). The assay is described as above.

As to “endogenous HDAC2 (human dermal fibroblasts) (from UniProt Q92769 1-488) (enzyme)”, the binding result in assay [1], in assay [2], in assay [3], in assay [4], in [5] and in assay [6] was “binds” throughout. Also, the binding result in assay [7] and in [8] was “binds” in each case.
In the case of “nonphosphorylable FLAG-HDAC2 S394A (from UniProt Q92769 1-488) (enzyme)”, in the assay with GFP-lamin A, the binding entry is “binds”.
Same read-out and setting: next, “phosphomimetic FLAG-HDAC2 S394D (from UniProt Q92769 1-488) (enzyme)”: “binds”.
Turning to “MEF2C (endogenous, control fibroblasts) (from UniProt Q06413 1-473)”, the binding result in assay [8] is recorded as “no binding”.
As for GFP-lamin A (from UniProt P02545 1-646), the binding result in the assay with wild-type FLAG-HDAC2 is recorded as “binds”.
Consider “endogenous HDAC2 (HEK293 cells) (from UniProt Q92769 1-488) (enzyme)”, for which the binding result with FLAG-lamin A is reported as “binds”.
Turning to “phosphorylated form of HDAC2 (serine 394) (from UniProt Q92769 1-488) (enzyme)”, the binding entry in [4] and in assay [8] was “binds” throughout.
In the case of “wild-type FLAG-HDAC2 (from UniProt Q92769 1-488) (enzyme)”, the binding entry with GFP-lamin A is listed as “binds”.
